PubChem BioAssay AID686938 – Drosophila RNAi Screening Center, 2013

- Aim: 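Looking for CRAC channel components and the factors controlling them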 (primary screen)
- Cells: Drosophila S2R+ cells
- Reagents: long dsRNA against Drosophila genes, about 0.25 µg dsRNA per well, roughly 10,000 cells
- Timing: 5 days of knock-down before the calcium assay
- Challenge: thapsigargin (SERCA pump blocker) to empty calcium stores; entry signal taken 4 min after adding it
- Measured: 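Per-well fluo-4 fluorescence in two replicates, unnormalised, measured in resting cells and 4 min after store depletion by the SERCA blocker thapsigargin; ratio of the two present in few wells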
- Scale: calcium entry signal: higher = stronger calcium signal after store depletion; entry to resting ratio: higher = more calcium entry relative to resting level; resting calcium signal: higher = higher resting calcium signal
- Rule for the call: 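Called when the plate z-score of the entry-to-rest ratio, mean of duplicates, falls below −3; wells with low overall dye signal (Fmax z below −2) or more than five off-targets excluded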
- Calls: active = strongly reduced calcium entry; inactive = no strong reduction
The deposit covers about 23,000 reagents; shown is an unselected part of those with a known target gene and a result. In the full data, 75 (0.33%) were called active. 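Raw plate signals without normalisation; calls rest on plate z-scores that were not deposited; ratio present for only 364 wells.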 Names joined by + are all predicted targets of the reagent. The record does not give: the dose of the treatment.

Target gene	dsRNA	calcium entry signal, replicate 1 (fluorescence units)	calcium entry signal, replicate 2 (fluorescence units)	entry to resting ratio	resting calcium signal, replicate 1 (fluorescence units)	resting calcium signal, replicate 2 (fluorescence units)	Call
Rph (Rabphilin)	DRSC17790	4.25e7	5.09e7		1.98e7	2.52e7	inactive
inc (insomniac)	DRSC17954	3.12e7	4.19e7	2.1	1.46e7	1.62e7	inactive
inc (insomniac)	DRSC18512	2.05e7	2.88e7		1.01e7	1.46e7	inactive
l(2)SH0834 (lethal (2) SH0834)	DRSC02854	2.77e7	3.54e7		1.37e7	1.63e7	inactive
Tom20 (Translocase of outer membrane 20)	DRSC10899	3.33e7	4.03e7		1.61e7	2.70e7	inactive
CG33459	DRSC05615	2.49e7	4.14e7		1.10e7	1.84e7	inactive
CG13198	DRSC06323	3.20e7	3.57e7		1.66e7	1.87e7	inactive
Dsp1 (Dorsal switch protein 1)	DRSC20315	1.39e7	1.41e7		9.80e6	9.16e6	inactive
Dsp1 (Dorsal switch protein 1)	DRSC23078	6.02e7	2.84e7		2.94e7	1.15e7	inactive
Sbp2 (SECIS-binding protein 2)	DRSC10766	3.50e7	2.51e7		2.37e7	1.14e7	inactive
CR33318 (pseudo)	DRSC22949	2.38e7	3.77e7		1.20e7	1.44e7	inactive
U2af38 (U2 small nuclear riboprotein auxiliary factor 38)	DRSC00796	1.74e7			1.31e7		inactive
Gr64f (Gustatory receptor 64f)	DRSC08447	4.76e7	5.00e7		2.27e7	2.21e7	inactive
CG14352	DRSC00382	3.52e7	4.74e7		1.62e7	1.77e7	inactive
Setx (Senataxin)	DRSC10859	3.62e7	3.43e7		1.83e7	1.55e7	inactive

Part of the list above, limited to “resting calcium signal, replicate 1 (fluorescence units)”:
Sbp2 (SECIS-binding protein 2) [DRSC10766]: 2.37e7
CR33318 (pseudo) [DRSC22949]: 1.20e7
U2af38 (U2 small nuclear riboprotein auxiliary factor 38) [DRSC00796]: 1.31e7
Gr64f (Gustatory receptor 64f) [DRSC08447]: 2.27e7
CG14352 [DRSC00382]: 1.62e7

The list goes on.
Target gene	dsRNA	calcium entry signal, replicate 1 (fluorescence units)	calcium entry signal, replicate 2 (fluorescence units)	entry to resting ratio	resting calcium signal, replicate 1 (fluorescence units)	resting calcium signal, replicate 2 (fluorescence units)	Call
CG10527	DRSC04078	3.88e7			1.97e7		inactive
CG14456	DRSC11713	2.40e7	3.38e7		1.17e7	1.52e7	inactive
Obp57c + Obp57b	DRSC21914	2.94e7	2.75e7		1.81e7	1.50e7	inactive
CG18131	DRSC00517	5.04e7	7.56e7		2.41e7	2.86e7	inactive
CG18131	DRSC22983	5.82e7	2.29e7		2.83e7	1.05e7	inactive
Vajk3	DRSC01883	4.44e7			2.09e7		inactive
Dtwd2 + Obp84a	DRSC12603	4.21e7	4.75e7		2.22e7	2.14e7	inactive
tomboy20	DRSC14913	3.44e7	3.40e7		1.70e7	1.72e7	inactive
Cyp4g15 (Cytochrome P450 4g15)	DRSC20240	3.60e7	5.88e7		1.74e7	2.79e7	inactive
CG7879	DRSC08600	2.95e7	2.76e7		1.44e7	1.37e7	inactive
mnd (minidiscs)	DRSC11370	4.09e7	4.79e7		1.95e7	1.88e7	inactive
CG4467	DRSC15585	3.76e7	5.04e7		2.08e7	2.09e7	inactive
Ucp4C (Uncoupling protein 4C)	DRSC03132	3.63e7	4.22e7		1.86e7	2.07e7	inactive
CG2182	DRSC12308	3.19e7	3.83e7		1.42e7	1.64e7	inactive
CG1440	DRSC17915	3.98e7	3.73e7		1.70e7	1.62e7	inactive
CG16772	DRSC02516	4.90e7	3.62e7		2.26e7	1.69e7	inactive
Whamy (WHAMM and JMY related)	DRSC14574	4.09e7	3.69e7		2.10e7	1.82e7	inactive
Tret1-2 (Trehalose transporter 1-2)	DRSC07117	2.96e7	4.60e7		1.61e7	2.10e7	inactive
lncRNA:roX2 (long non-coding RNA on the X 2)	DRSC22237	3.16e7	4.30e7		1.63e7	2.24e7	inactive
Tep5Psi (Thioester-containing protein 5 pseudogene)	DRSC02183	4.87e7	4.30e7		2.33e7	2.05e7	inactive
Tep5Psi (Thioester-containing protein 5 pseudogene)	DRSC02184	6.29e7	4.31e7		2.81e7	1.83e7	inactive
CG7328	DRSC10812	3.04e7	4.83e7		1.56e7	2.00e7	inactive
CG32278 + CG14963	DRSC22203	3.67e7	5.66e7		1.78e7	3.10e7	inactive
CG17002	DRSC04978	4.12e7			2.10e7		inactive
CG17127	DRSC02581	3.00e7	4.57e7		1.41e7	1.91e7	inactive
